Experimental data published in PubChem BioAssay AID529 (NMMLSC, 2006).
About 50 (0.2%) of roughly 24,000 compounds were called active. Inconclusive means that the source gave no clear call. Such entries were picked first, then a sample of the others.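 How the source made its calls: active means inhibition above 50%; inconclusive means compound itself fluorescent, judged against control cell fluorescence; inactive means the rest.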

Protein sequences, listed by entry. Tags and fused reporters are not part of them.
UniProt P13612, whole entry, looked up: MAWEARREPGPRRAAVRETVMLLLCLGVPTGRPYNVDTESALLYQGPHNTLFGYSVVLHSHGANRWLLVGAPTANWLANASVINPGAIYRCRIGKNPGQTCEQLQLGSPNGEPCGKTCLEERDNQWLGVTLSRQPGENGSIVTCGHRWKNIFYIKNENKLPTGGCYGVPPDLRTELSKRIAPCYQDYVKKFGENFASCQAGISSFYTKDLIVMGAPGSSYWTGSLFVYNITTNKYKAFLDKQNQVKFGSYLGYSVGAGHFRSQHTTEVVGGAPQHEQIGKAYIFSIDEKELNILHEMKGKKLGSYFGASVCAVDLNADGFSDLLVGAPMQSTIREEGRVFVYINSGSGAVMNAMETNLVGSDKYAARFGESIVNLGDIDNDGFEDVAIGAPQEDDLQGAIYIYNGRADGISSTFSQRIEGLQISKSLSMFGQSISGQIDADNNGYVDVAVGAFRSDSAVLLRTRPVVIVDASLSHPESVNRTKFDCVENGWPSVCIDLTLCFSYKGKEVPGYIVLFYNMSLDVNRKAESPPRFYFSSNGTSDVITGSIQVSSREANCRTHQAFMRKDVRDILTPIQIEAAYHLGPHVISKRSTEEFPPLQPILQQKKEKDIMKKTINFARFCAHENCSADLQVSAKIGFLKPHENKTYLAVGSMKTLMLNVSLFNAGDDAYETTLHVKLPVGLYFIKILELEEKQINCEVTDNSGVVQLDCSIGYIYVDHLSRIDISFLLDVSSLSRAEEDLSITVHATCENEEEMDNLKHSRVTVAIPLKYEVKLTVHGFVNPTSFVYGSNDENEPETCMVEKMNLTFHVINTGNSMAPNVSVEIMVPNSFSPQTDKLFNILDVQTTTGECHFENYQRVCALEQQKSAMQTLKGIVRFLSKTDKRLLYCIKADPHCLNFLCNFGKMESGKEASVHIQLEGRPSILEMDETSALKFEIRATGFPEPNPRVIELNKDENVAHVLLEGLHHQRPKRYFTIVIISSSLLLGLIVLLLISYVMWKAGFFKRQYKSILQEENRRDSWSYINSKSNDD

target: Integrin alpha-4 (Homo sapiens) (UniProt P13612); experiment: blockers of LDV-FITC ligand binding on VLA-4 – Jurkat cells, Mn2+ activated, primary screen (AID 529); conditions: LDV-FITC binding with Mn2+, flow cytometry; hits give high values, screened at 10 µM (by protocol), 100% = Mn2+-driven binding gain fully reversed unless noted;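 on inhibition: 0% = Mn2+ stimulated cells lacking compound and 100% = ligand binding without Mn2+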

Compound | inhibition
Cc1cccc(-n2c(C)nc3c(cnn3-c3ccc(F)cc3)c2=O)c1 | inconclusive
COC(=O)c1ccccc1NC(=O)Cn1cnc2ccc(S(=O)(=O)N3CCC(C)CC3)cc2c1=O | inconclusive
O=C(Nc1ccc2c(c1)OCCO2)C1CCCN(S(=O)(=O)c2cccnc2)C1 (configuration not stated) | inconclusive
Cc1cc2ccccc2c(=O)n1CC(=O)NC1CCCCCC1 | inconclusive
CCOC(=O)CNC(=O)C(NC(=O)C1CCC(C)CC1)C(C)CC (configuration not stated) | inconclusive
CCc1ccccc1S(=O)(=O)Cc1ccc(C(=O)N2CCN(c3ccccc3OC)CC2)o1 | inconclusive
COc1ccccc1N=Cc1nc(-c2ccccc2)oc1OC(C)=O | inconclusive
Cn1c(=O)[nH]c(=O)c2[nH]c(CN3CCN(C(=O)c4ccco4)CC3)nc21 | inconclusive
O=C(C1CCN(c2nnc(-n3cccc3)s2)CC1)N1CCOCC1 | inactive: -9%
CCOC(=O)N1CCC(n2c(SCC(=O)Nc3nccs3)nc3ccsc3c2=O)CC1 | inconclusive
O=C(NCCN1C(=O)C2C3C=CC(C3)C2C1=O)N1CCCCC1 (configuration not stated) | inactive: -11%
Cc1oc(-c2cccc(Cl)c2)nc1CN1CCC(C(=O)NCc2ccco2)CC1 | inconclusive
COc1ccc(OC)c2[nH]c(=O)c(CCNS(=O)(=O)c3ccccc3)cc12 | inconclusive
c1cnc(N2CCN(c3nc4ccccc4n4cnnc34)CC2)nc1 | inconclusive
Fc1ccc(-c2nnc3ccc(N4CCc5ccccc5C4)nn23)cc1 | inconclusive
Cc1cc(NC(=O)c2ccc(S(=O)(=O)N3CCOCC3)cc2)nc2c1c(=O)oc1ccccc12 | inconclusive
CCSc1nc2c(c(=O)[nH]1)C(c1cccnc1)C(C(=O)OC)=C(C)N2 (configuration not stated) | inconclusive
COc1cc2[nH]c(=O)n3nc(-c4ccccc4)nc3c2cc1OC | inconclusive
CCOC(=O)C1CCN(S(=O)(=O)c2ccc(NC(=O)OC)cc2)CC1 | inconclusive
O=C(Nc1cccc(O)c1)c1ccccc1 | inconclusive
CCn1cc(C(=O)NCc2ccc(Cl)cc2)c(=O)c2cc(S(=O)(=O)N3CCOCC3)ccc21 | inconclusive

Exported as a markdown table: entries from further up

| Compound | inhibition |
| --- | --- |
| COc1ccc(OC)c2[nH]c(=O)c(CCNS(=O)(=O)c3ccccc3)cc12 | inconclusive |
| c1cnc(N2CCN(c3nc4ccccc4n4cnnc34)CC2)nc1 | inconclusive |

(further entries)

Compound | inhibition
O=C1C(C=Nc2ccccc2O)=C(O)c2ccccc21 | inconclusive
Cc1c(C(=O)N2CCCCC2)oc2ccc(S(=O)(=O)N3CC(C)CC(C)C3)cc12 (configuration not stated) | inconclusive
Cc1ccc(CCNC(=O)c2nnn(-c3cccc(C)c3)c2N)cc1 | inconclusive
Nc1nnc(N2CCc3ccccc32)s1 | inconclusive
COc1ccc(-c2cc3nc(C)c(CCC(=O)N4CCCCC4)c(C)n3n2)c(OC)c1 | inactive: 11%
CC(=O)N1CCc2cc(Br)cc(S(=O)(=O)N3CCN(c4ccccn4)CC3)c21 | inconclusive
Cc1ccccc1OCC(=O)Nc1ccc2c(c1)OCO2 | inconclusive
CCOc1cc(-c2cc(N)n[nH]2)cc(OCC)c1OCC | inconclusive
O=C(Nc1ccc(F)cc1F)N1CCN(c2ncccn2)CC1 | inconclusive
CC1=CC2=C(OC1N(C)C)c1cccc3cccc(c13)C2=O (configuration not stated) | inconclusive
COc1ccc(N(C)C(=O)CCS(=O)(=O)c2cccc3nonc23)c(OC)c1 | inconclusive
COc1ccc(C(=O)NCCn2ccc3ccccc32)c(OC)c1 | inactive: -3%
Cc1cccc(CCNC(=O)c2nnc(Cc3ccc(Cl)cc3)o2)c1 | inconclusive
Cc1cc(N2CCC(C)CC2)nc2ccc(N3C(=O)CCC3=O)cc12 | inconclusive
O=C(NCCCN1CCCCC1)c1ccc2c(=O)n(CCc3ccccc3)c(=O)[nH]c2c1 | inconclusive
COc1ccc(NC(=O)c2ccc3c(c2)n(C)c(=O)n3C)cc1 | inconclusive
N=c1oc2c3c4c(cc2cc1C(=O)Nc1ccccc1)CCCN4CCC3 | inconclusive
CCOC(=O)C1CCCN(C(=O)c2cc3c(=O)n4cccc(C)c4nc3n2C)C1 (configuration not stated) | inactive: -2.3%
Fc1ccc2nc(Nc3nc4c(s3)CCCC4)sc2c1 | inconclusive
CCOC(=O)C1CCCN(c2nc3ccccc3nc2C(C#N)C(=O)NCc2ccccc2)C1 (configuration not stated) | inconclusive
Cc1onc(-c2ccccc2Cl)c1C(=O)N1CCN=C1SCc1cccnc1 | inconclusive

Some values from the list:
Cc1c(C(=O)N2CCCCC2)oc2ccc(S(=O)(=O)N3CC(C)CC(C)C3)cc12 (configuration not stated) | inhibition: inconclusive
COc1ccc(-c2cc3nc(C)c(CCC(=O)N4CCCCC4)c(C)n3n2)c(OC)c1 | inhibition: inactive: 11%

(continued)

Compound | inhibition
COc1ccccc1N1CCN(C(CNS(=O)(=O)c2ccc(C)cc2)c2cccnc2)CC1 (configuration not stated) | inconclusive
CCCCn1nnc(NC(=O)c2cc3ccccc3o2)n1 | inconclusive
Cc1oc(-c2ccccc2F)nc1CS(=O)CC(=O)NCc1cccs1 (configuration not stated) | inconclusive
O=C(Nc1ccc(Br)cc1F)c1sccc1-n1cccc1 | inactive: 1%
COc1ccc(C2=CC(c3sccc3C)n3nnnc3N2)cc1 (configuration not stated) | inconclusive
Cc1ccc(C)c(Cc2c(C)nc3c(C(=O)N4CCOCC4)cnn3c2C)c1 | inconclusive
CC1(C)CC(=O)C2=C(C1)N(CCN1CCOCC1)C1=C(C(=O)CC(C)(C)C1)C2c1cccc(Cl)c1 | inconclusive
CC1=C(C(N)=O)C(c2cccnc2)n2nc(-c3cccc(C)c3)nc2N1 (configuration not stated) | inconclusive
Cn1c2ccccc2c2cnn(CC(=O)N3CCN(c4ncccn4)CC3)c(=O)c21 | inactive: -2%
COc1ccc(OC)c(C2CC(=O)N3CN(c4cccc(Cl)c4C)CSC3=C2C#N)c1 (configuration not stated) | inconclusive
CC(=O)N1CCc2cc(S(=O)(=O)Nc3cccc(C(F)(F)F)c3)ccc21 | inconclusive
CC(C)CC(NC(=O)C1CCC(C)CC1)C(=O)N1CCN(c2ccccn2)CC1 (configuration not stated) | inconclusive
CCOC(=O)c1sc(Nc2nc3c(OC)cccc3s2)nc1C | inconclusive
CCOC(=O)C1CCCN(C(=O)Cn2ncc3c(=O)oc4ccc(C)cc4c32)C1 (configuration not stated) | inconclusive
O=C(Nc1cccc2nsnc12)c1ccc2c(c1)OCCO2 | inconclusive
Cc1ccc(C)n1CCN1CCN(CC(=O)Nc2ccc(S(N)(=O)=O)cc2)CC1 | inconclusive
CC1=C(C(N)=O)C(c2ccc3c(c2)OCO3)n2nc(-c3cccc(C)c3)nc2N1 (configuration not stated) | inconclusive
COC(=O)C1C(=O)C2=C(CC1C)NC(=O)CC2c1ccc(O)c(OC)c1 (configuration not stated) | inconclusive
Cc1c(C(=O)N2CC(C)OC(C)C2)sc2nc(-c3ccccc3)cn12 (configuration not stated) | inconclusive
CCOC(=O)Cn1c(=O)oc2cc(S(=O)(=O)N3CCc4ccccc43)ccc21 | inconclusive
